Laboratory results taken from the supplement of paper PMC7666118.
The list shows a part of the results.

Protein sequences, listed by entry. Tags and fused reporters are not part of them. Lines headed by an entry give the natural chain unless they say otherwise; changes in a name come on top.
UniProt Q96S97: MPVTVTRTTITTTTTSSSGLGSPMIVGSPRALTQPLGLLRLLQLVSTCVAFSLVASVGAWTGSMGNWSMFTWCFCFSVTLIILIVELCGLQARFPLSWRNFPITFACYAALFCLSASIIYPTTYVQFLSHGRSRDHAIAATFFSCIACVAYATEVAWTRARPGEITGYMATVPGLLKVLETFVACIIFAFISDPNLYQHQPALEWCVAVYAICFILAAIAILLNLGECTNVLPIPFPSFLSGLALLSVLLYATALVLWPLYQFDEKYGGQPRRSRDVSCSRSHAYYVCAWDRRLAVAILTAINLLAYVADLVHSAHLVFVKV
UniProt Q03164, whole entry: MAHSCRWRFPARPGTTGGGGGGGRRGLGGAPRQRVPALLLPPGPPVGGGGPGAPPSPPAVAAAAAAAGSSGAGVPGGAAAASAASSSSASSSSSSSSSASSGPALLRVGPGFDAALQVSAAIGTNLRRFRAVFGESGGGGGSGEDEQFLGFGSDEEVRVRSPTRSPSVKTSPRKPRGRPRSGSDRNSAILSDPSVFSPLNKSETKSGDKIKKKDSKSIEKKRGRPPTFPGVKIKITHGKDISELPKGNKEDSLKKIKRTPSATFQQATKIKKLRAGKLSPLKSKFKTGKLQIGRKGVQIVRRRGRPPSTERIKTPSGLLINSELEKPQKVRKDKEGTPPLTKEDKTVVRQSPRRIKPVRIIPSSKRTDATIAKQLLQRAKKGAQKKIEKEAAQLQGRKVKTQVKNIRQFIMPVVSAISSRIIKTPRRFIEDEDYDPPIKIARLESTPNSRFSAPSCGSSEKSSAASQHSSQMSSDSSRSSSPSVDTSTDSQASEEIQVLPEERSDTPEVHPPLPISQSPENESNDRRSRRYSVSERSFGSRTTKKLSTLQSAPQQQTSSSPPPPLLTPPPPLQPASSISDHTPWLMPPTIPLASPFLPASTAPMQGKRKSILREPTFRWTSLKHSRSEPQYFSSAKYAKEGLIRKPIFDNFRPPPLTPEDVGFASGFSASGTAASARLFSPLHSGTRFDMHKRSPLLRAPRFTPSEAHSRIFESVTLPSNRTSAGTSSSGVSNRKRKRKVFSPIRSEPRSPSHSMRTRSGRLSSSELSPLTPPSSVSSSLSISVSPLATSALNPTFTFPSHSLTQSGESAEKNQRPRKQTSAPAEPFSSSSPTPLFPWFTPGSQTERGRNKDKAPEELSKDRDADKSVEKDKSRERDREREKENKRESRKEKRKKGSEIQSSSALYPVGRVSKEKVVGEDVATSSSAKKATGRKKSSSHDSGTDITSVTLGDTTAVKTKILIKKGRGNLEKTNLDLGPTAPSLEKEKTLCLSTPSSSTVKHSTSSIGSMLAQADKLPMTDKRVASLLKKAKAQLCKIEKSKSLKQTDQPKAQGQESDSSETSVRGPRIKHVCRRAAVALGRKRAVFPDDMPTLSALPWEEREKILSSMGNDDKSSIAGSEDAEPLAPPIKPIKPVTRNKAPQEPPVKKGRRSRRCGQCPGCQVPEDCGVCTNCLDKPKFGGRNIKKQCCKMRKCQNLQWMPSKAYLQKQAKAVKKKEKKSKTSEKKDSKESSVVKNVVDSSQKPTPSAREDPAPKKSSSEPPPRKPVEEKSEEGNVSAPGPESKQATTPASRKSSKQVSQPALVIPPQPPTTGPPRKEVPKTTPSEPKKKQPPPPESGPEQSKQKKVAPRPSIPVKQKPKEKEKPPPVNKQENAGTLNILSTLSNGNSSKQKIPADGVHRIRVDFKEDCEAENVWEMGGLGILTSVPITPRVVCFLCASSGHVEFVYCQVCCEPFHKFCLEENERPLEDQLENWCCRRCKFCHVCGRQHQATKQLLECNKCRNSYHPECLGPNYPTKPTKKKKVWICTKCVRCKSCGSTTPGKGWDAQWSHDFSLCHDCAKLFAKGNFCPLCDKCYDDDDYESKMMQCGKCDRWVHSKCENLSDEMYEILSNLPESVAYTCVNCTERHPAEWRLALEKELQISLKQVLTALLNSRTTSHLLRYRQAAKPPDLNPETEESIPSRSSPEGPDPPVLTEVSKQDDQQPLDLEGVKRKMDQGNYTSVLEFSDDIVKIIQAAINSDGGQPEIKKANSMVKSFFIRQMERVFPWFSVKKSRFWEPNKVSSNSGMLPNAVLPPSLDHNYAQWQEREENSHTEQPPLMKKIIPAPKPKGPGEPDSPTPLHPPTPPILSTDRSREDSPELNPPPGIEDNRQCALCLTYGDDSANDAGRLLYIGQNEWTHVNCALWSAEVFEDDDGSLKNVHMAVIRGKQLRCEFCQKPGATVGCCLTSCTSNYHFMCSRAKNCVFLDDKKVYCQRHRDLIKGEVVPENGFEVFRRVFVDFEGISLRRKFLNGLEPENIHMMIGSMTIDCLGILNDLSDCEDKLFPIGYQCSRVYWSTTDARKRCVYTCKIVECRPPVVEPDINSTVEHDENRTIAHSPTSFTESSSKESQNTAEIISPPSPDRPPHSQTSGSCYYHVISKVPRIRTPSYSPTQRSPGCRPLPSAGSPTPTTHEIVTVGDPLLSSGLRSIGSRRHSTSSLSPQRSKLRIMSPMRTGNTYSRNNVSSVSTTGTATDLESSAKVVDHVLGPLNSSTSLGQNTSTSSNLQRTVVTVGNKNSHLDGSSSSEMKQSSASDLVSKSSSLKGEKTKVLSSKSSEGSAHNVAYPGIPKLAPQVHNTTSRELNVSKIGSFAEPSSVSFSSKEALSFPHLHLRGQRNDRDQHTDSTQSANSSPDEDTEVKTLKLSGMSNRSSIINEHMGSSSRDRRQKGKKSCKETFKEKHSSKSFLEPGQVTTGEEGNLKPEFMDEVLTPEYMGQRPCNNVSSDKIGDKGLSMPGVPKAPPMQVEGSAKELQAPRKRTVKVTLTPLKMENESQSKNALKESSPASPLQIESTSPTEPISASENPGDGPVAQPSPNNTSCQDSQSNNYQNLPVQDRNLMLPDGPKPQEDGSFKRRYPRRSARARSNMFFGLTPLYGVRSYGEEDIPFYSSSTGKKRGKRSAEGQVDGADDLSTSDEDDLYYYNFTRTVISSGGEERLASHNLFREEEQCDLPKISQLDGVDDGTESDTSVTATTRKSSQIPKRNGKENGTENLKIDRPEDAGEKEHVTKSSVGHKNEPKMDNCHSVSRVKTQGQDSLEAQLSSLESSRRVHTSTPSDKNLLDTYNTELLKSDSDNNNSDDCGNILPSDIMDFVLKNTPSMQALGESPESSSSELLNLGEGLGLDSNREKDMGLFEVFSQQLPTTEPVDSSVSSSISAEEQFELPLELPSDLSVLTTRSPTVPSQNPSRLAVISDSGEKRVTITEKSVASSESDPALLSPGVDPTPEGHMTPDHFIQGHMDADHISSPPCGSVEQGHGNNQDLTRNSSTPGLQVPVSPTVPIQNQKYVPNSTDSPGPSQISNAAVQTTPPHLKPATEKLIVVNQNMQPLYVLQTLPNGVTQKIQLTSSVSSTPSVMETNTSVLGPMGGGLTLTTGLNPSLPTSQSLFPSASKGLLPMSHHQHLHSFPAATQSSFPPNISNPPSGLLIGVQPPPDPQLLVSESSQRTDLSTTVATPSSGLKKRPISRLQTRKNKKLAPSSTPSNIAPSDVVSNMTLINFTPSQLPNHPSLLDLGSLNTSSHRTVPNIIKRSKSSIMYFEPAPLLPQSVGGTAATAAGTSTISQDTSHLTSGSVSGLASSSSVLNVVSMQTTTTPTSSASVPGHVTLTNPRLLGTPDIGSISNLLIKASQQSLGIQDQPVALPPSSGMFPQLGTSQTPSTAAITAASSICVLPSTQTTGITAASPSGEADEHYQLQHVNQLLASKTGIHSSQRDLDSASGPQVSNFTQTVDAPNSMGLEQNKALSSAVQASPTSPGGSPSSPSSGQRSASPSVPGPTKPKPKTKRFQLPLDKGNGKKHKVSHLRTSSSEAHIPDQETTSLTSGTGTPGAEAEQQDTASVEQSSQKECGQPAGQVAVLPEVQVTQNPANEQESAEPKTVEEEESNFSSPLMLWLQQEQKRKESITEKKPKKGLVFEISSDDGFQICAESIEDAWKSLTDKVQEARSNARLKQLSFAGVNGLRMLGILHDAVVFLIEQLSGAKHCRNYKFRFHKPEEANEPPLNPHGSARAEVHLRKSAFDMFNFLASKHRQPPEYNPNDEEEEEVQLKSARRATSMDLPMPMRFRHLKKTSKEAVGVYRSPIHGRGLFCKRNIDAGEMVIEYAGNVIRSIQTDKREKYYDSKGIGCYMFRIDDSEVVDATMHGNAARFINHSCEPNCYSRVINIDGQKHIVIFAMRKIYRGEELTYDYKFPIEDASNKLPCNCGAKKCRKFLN
UniProt P60660, whole entry: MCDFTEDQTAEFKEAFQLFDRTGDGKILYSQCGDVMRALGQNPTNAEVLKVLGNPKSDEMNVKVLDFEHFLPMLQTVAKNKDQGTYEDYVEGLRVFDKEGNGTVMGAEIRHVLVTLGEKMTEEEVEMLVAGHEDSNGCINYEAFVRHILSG
UniProt Q9Y6X9: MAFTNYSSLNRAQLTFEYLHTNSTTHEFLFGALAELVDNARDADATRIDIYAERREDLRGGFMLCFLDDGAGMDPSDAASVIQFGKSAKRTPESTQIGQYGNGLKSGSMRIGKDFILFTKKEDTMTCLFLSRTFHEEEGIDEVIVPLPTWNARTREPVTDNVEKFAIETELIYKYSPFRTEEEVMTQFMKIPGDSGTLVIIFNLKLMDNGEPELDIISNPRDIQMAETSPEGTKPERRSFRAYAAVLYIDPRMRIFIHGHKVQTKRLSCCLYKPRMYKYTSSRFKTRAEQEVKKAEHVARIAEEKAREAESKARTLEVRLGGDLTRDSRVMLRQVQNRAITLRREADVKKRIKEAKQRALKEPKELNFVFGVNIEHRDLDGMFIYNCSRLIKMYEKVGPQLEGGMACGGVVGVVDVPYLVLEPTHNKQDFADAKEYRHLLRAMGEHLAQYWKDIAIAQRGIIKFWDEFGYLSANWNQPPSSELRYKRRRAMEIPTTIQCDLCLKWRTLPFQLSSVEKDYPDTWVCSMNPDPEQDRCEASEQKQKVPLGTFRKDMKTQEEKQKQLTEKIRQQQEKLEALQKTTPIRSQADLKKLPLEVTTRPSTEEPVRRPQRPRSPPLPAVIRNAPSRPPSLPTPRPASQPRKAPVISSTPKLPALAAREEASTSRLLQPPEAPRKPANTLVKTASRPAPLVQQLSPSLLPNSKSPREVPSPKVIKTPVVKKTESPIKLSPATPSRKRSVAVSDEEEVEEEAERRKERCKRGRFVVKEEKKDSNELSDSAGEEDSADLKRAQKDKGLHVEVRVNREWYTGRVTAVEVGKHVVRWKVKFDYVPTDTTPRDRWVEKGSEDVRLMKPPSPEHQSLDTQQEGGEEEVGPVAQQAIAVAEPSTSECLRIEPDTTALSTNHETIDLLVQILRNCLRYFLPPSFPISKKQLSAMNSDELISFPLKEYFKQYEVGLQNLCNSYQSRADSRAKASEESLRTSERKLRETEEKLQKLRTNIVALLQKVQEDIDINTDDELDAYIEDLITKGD
UniProt Q9BT17: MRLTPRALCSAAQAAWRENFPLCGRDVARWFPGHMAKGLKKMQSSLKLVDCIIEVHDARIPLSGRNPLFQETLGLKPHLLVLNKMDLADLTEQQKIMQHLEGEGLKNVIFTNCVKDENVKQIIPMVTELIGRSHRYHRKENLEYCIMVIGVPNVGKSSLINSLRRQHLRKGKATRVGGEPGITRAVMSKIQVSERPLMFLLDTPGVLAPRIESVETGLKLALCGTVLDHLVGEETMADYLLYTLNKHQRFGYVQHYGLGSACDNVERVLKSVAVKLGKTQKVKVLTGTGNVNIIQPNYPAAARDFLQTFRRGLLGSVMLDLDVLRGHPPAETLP
UniProt Q14696: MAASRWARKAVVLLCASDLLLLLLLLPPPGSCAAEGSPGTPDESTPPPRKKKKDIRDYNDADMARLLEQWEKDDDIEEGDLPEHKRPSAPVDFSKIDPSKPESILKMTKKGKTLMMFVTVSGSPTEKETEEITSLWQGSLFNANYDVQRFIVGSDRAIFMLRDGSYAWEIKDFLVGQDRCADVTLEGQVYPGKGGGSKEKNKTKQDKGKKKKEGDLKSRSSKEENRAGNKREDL
UniProt Q9HD23: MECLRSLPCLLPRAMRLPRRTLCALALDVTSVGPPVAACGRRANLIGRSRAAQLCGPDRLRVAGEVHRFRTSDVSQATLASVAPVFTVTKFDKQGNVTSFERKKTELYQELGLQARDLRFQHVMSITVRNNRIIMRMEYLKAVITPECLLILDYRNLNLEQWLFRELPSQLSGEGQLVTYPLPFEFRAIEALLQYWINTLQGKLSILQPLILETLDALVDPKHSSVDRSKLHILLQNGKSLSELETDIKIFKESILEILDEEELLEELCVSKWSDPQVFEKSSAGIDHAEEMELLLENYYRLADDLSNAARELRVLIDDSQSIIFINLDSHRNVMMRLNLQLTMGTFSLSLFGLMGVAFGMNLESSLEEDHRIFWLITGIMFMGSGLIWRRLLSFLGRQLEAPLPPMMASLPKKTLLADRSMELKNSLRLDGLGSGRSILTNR

compound: COc1ccc(Cn2ccc3cc(C)c(C(=O)NO)cc32)cc1; assay: dose-dependent thermal stabilisation call (2D-TPP, DLPTP, 10% FDR) (binary (1 = stabilised)); higher = stabilised by the compound; conditions: system: HL-60 intact cells; concentration range 0.04-10 µM
Experimental: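 2D thermal proteome profiling in intact HL-60 cells treated with BRD-3811 (0, 0.04, 0.29, 2, 10 uM) for 90 min at 37 C, then heated 3 min at one of 12 temperatures (42-63.9 C). Soluble protein was quantified by TMT10 MS. The value is the DLPTP call of the paper: dose-dependent thermal stabilisation over all temperatures at 10% FDR (F-test of a dose-response against a flat model); one experiment, one call per tested protein.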

Target | dose-dependent thermal stabilisation call
MYADM (UniProt Q96S97) | inactive: 0
N6AMT2 (UniProt Q8WVE0) | inactive: 0
MED6 (UniProt O75586) | inactive: 0
MPHOSPH8 (UniProt Q99549) | inactive: 0
MRPS34 (UniProt P82930) | inactive: 0
MNT (UniProt Q99583) | inactive: 0
MLL (UniProt Q03164) | inactive: 0
MOBKL2A (UniProt Q96BX8) | inactive: 0
MRPS18B (UniProt Q9Y676) | inactive: 0
MYL6 (UniProt P60660) | inactive: 0
MOSC2 (UniProt Q969Z3) | inactive: 0
MPHOSPH10 (UniProt O00566) | inactive: 0
MRPS9 (UniProt P82933) | inactive: 0
MRPL12 (UniProt P52815) | inactive: 0
MRPL32 (UniProt Q9BYC8) | inactive: 0
MRPS18A (UniProt Q9NVS2) | inactive: 0
MORC2 (UniProt Q9Y6X9) | inactive: 0
MED12 (UniProt Q93074) | inactive: 0

Copied from the list.
MYL6 (UniProt P60660) – dose-dependent thermal stabilisation call: inactive: 0
MRPS18B (UniProt Q9Y676) – dose-dependent thermal stabilisation call: inactive: 0
MRPS18A (UniProt Q9NVS2) – dose-dependent thermal stabilisation call: inactive: 0

(continued)

Target | dose-dependent thermal stabilisation call
MKLN1 (UniProt Q9UL63) | inactive: 0
MRPL17 (UniProt Q9NRX2) | inactive: 0
MTG1 (UniProt Q9BT17) | inactive: 0
MTMR6 (UniProt Q9Y217) | inactive: 0
N4BP1 (UniProt O75113) | inactive: 0
MRPL46 (UniProt Q9H2W6) | inactive: 0
MED21 (UniProt Q13503) | inactive: 0
MED25 (UniProt Q71SY5) | inactive: 0
MNAT1 (UniProt P51948) | inactive: 0
MOSPD2 (UniProt Q8NHP6) | inactive: 0
MED8 (UniProt Q96G25) | inactive: 0
MESDC2 (UniProt Q14696) | inactive: 0
MRPS5 (UniProt P82675) | inactive: 0
MTHFD1 (UniProt P11586) | inactive: 0
MGC3196 | inactive: 0
MYCBP2 (UniProt O75592) | inactive: 0
MRPL37 (UniProt Q9BZE1) | inactive: 0
MRS2 (UniProt Q9HD23) | inactive: 0
